The text below walks through data of PMC7819943, “Rice protein-binding microarrays: a tool to detect cis-acting elements near promoter regions in rice”.

The other results are listed elsewhere or left out.

The assay concerns the target T1, OsSMF1 (Oryza sativa, UniProt Q6ZLB0 1-436).
T1 sequence: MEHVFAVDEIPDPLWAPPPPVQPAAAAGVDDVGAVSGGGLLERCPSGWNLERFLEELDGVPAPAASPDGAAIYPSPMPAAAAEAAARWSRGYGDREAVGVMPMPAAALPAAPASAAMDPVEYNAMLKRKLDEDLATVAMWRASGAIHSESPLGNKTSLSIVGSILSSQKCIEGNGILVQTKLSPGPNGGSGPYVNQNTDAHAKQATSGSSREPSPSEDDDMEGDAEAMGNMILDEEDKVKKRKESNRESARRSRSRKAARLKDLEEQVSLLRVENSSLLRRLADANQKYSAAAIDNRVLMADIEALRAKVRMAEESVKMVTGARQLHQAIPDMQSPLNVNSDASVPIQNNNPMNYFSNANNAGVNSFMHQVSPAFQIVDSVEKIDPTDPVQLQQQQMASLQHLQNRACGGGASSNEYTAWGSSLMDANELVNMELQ
Description: protein-binding microarray (RPBM); PBS, 2% BSA, 51.3 ng/ul salmon testes DNA, 50 uM zinc acetate, 200 nM TF, 25 C, 1 h; high values mean tight binding. To be noted: protein: recombinant; tags: N-terminal polyhistidine and DsRed monomer fusion (pET32a); chain copies: 2; label: CyDye5-dUTP incorporated in the synthesized complementary strand; 3' TTTTT single-stranded linker to array surface; dsDNA, one strand shown. A digest of the protocol: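 Binding signal here means per-feature fluorescence intensity in arbitrary units. The values were read on an Axon 4000B scanner after a custom Agilent array, double-stranded by primer extension with Cy5-dUTP, was incubated with 200 nM protein at 25 °C for 1 h in PBS with 2% BSA, salmon testes DNA and 50 µM zinc acetate, then washed. The proteins were transcription factors with an N-terminal polyhistidine tag and DsRed, expressed in E. coli BL21-CodonPlus and purified on Ni–NTA.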
For the sequence “AAGTTGTATACATCTTGCACTGTCACTAGATCTACTCATACGGAGTCACCTAGTGCAG”, the binding signal is 3770 fluorescence intensity (a.u.). The same measure for “AAAATAATGAGTGAATGACAACGTTGTACCGACCGCGCCGCGGAGTCACCTAGTGCAG”: 3230 fluorescence intensity (a.u.); for “GCCGCCGCCGCCGCCGCCGCTGACGAGGAGCAGAAGGTGGCGGAGTCACCTAGTGCAG”: 4310 fluorescence intensity (a.u.); for “GCGGGCATAGTCCACCCAACCAGCGAGCCATGTGGCCCCACGGAGTCACCTAGTGCAG”: 3590 fluorescence intensity (a.u.). Take “GCCACGTGGGATGAAGCCTAAGTCAACATCGCCACGTCAGCGGAGTCACCTAGTGCAG”: the binding signal is 43200 fluorescence intensity (a.u.). On to “TAATTTTAACGTGAGCTGAAGAAGACAGTACCGAAGGATACGGAGTCACCTAGTGCAG”, for which the binding signal was 3250 fluorescence intensity (a.u.). The same measure for “TGAGAGTGGTTTAGCGCCTACGTGGCAGTTTGACTTGGTCCGGAGTCACCTAGTGCAG”: 18500 fluorescence intensity (a.u.).

In the case of “GTTCTACCAGATGAATTTATGATTCTATGAACTAGTAAACCGGAGTCACCTAGTGCAG”, the binding signal was 27200 fluorescence intensity (a.u.). The same measure for “GCGCGCCGCCATGTCCGCTCCATCCCGGCCGCCACGCCCGCGGAGTCACCTAGTGCAG”: 4330 fluorescence intensity (a.u.). In the case of “CCGCTTCATGAGCCGTCGTGGCGTGGATTTGGAAATCCATCGGAGTCACCTAGTGCAG”, the binding signal was 3940 fluorescence intensity (a.u.). For “CATGTGATGCGTGTACCAACGACACATCACATACTTTAATCGGAGTCACCTAGTGCAG” the value was 5780 fluorescence intensity (a.u.). As to “GTAGGAGGGTGGTTGGTTGTAGAATGGGAAGAAATTTGAACGGAGTCACCTAGTGCAG”, the binding signal was 3220 fluorescence intensity (a.u.). The same measure for “CAGCCCAGTTAATTTCTGTAGTACCAGACGGGCCATGCGTCGGAGTCACCTAGTGCAG”: 7670 fluorescence intensity (a.u.); for “CCTTTGAGGTTGATGTTGACTCAGGTTAGAGTTTAGGGGCCGGAGTCACCTAGTGCAG”: 4510 fluorescence intensity (a.u.). For “CGGTCGCCGGAGACAGCAAGTGGAGGCGGGGAAGGAGTCGCGGAGTCACCTAGTGCAG” the value was 3610 fluorescence intensity (a.u.); for “GGCCGGCCAGCGCCATGGCTACCGCCGCCTCGTGCCTCTCCGGAGTCACCTAGTGCAG”, 3310 fluorescence intensity (a.u.); for “GGTCACTGTCGAATTCATCACATGCCACACAGGATCTCTGCGGAGTCACCTAGTGCAG”, 3200 fluorescence intensity (a.u.). The same measure for “CACGACCCGCTTGGACACGTCGTAGCGCGCGTCGATCTCCCGGAGTCACCTAGTGCAG”: 6350 fluorescence intensity (a.u.). Regarding “TCAATCCAGTCCATTAGGAACTCCACATATTTTGGCGCTGCGGAGTCACCTAGTGCAG”, the binding signal was 3960 fluorescence intensity (a.u.). For “CAAGTCACTTGGTGACATATGCAAACAGCCATGGATTGTACGGAGTCACCTAGTGCAG”, the binding signal was 4880 fluorescence intensity (a.u.). For “GCACCGTAAAGCTGCCCTGCTGCTGGCTGCACACGTAATTCGGAGTCACCTAGTGCAG” the value was 5600 fluorescence intensity (a.u.); for “TATGCTTGTCTGATCTATGCAATGACGTACTAGTACGCAACGGAGTCACCTAGTGCAG”, 3720 fluorescence intensity (a.u.). The same measure for “GCCGTGGGAATGGCTGAGGATTAGTGCGCCACGTCAGCAACGGAGTCACCTAGTGCAG”: 37300 fluorescence intensity (a.u.); for “GAGCGCTTTCACCAGCAGCCAGGCGAGCTCGAGCAGCACCCGGAGTCACCTAGTGCAG”: 21200 fluorescence intensity (a.u.); for “TGACAATCTGAAGGCAACCTCTTCATATCTTCTTTCCCACCGGAGTCACCTAGTGCAG”: 3610 fluorescence intensity (a.u.). As to “CCACGATCACATTCACCTCCCATCCCACGACGTTGCTCTCCGGAGTCACCTAGTGCAG”, the binding signal was 3880 fluorescence intensity (a.u.). The same measure for “TACATACCCGTCTCGCGATTAGCTTATGTGGCAAGGGCATCGGAGTCACCTAGTGCAG”: 6980 fluorescence intensity (a.u.); for “CCGCGCAATCTGCGTGGGCCACCACCATGCTAGTTACTACCGGAGTCACCTAGTGCAG”: 3790 fluorescence intensity (a.u.). For “TTGAATAGTGGTCCAAAATGAAACACCGGCAATAAAAGGTCGGAGTCACCTAGTGCAG” the value was 32600 fluorescence intensity (a.u.); for “CTGACGTGACGTCCACGTGACAACCTGGTCATTAAATAAACGGAGTCACCTAGTGCAG”, 6140 fluorescence intensity (a.u.); for “GACGTAATTAGCGCAAACTGTTAGGCCCAAATGCGTCATTCGGAGTCACCTAGTGCAG”, 3870 fluorescence intensity (a.u.). The same measure for “TTTCCCTGATAATAATAACCGACACGCGTAAGCTCTTGAACGGAGTCACCTAGTGCAG”: 3360 fluorescence intensity (a.u.); for “CCCTCCTTGACAAGGTCAGTGTCCACGTCCCTCGCCGCCGCGGAGTCACCTAGTGCAG”: 11400 fluorescence intensity (a.u.); for “ACGGCCCAGTCATCGGTCCGTTGGCCACGCGATTTCTCAGCGGAGTCACCTAGTGCAG”: 4420 fluorescence intensity (a.u.).

As for “GAGTACTCGTACTCCACGGTAGTACTACTGCTCCGTCCGTCGGAGTCACCTAGTGCAG”, the binding signal was 3500 fluorescence intensity (a.u.).

Turning to “CGCCACCCTGGTGCCACGTGTGTACCACATAGGAGCAAAACGGAGTCACCTAGTGCAG”, the binding signal is 14400 fluorescence intensity (a.u.). For “GTGGAATATTTCTGATCATGGTTTGGGAATAAACGTTCTGCGGAGTCACCTAGTGCAG” the value was 3310 fluorescence intensity (a.u.); for “GGAGCGGGGCGGCGGCGGGCGGAGTGGGCCGATGATGAGGCGGAGTCACCTAGTGCAG”, 3230 fluorescence intensity (a.u.); for “AATAATGCTGCCACGTCAATCTTATTGGCATGAAAATAAGCGGAGTCACCTAGTGCAG”, 8910 fluorescence intensity (a.u.). The same measure for “ACACGACGCGTACGTACGTCCAGTTCTTGGCTAAGCTTCACGGAGTCACCTAGTGCAG”: 3390 fluorescence intensity (a.u.). The same measure for “ACGCCGCCGCCGCCACCGCCACCGTCGCCGCCGCGCGTCCCGGAGTCACCTAGTGCAG”: 4080 fluorescence intensity (a.u.); for “GAAAACGTGTCACGAATCGTCACGTATAAATTGCACTGTGCGGAGTCACCTAGTGCAG”: 3300 fluorescence intensity (a.u.).
